This data set has as its target GATA-1 (UniProt P15976). The data set is described as follows: EMSA antibody supershift. Particulars: nuclear extracts of HEL, TF-1, UT-7, MEG-01, shift competed by excess unlabeled probe, anti-CD63 no supershift; protein in an extract; label: biotin 5'.

By UniProt entry, the sequences of proteins in these tests, tags left out. Where a name states a change or a piece, a line headed by the entry shows the natural chain unless it says otherwise.
UniProt P15976: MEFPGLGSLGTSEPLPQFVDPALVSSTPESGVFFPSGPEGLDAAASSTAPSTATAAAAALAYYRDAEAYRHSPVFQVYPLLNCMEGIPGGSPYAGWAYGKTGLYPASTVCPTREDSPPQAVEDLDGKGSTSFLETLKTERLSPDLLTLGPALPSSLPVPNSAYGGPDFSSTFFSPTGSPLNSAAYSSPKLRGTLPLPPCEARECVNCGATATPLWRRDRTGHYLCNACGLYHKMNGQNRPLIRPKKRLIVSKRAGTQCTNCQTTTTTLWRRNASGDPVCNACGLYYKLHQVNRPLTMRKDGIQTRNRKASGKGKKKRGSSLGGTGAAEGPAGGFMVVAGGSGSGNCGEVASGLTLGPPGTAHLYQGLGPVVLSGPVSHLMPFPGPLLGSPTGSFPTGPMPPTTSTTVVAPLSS

The exact form of at least one protein or probe is not confirmed. Results from cells or extracts need not show a direct contact.

Take “CCCGGCATTATCACGGGGACAC (double strand) [GATA-301 probe (MTG16 promoter)]”: the binding result was “binds”.

(Values after article PMC3364894.)
